The text below walks through data of PMC4664558 (Clinical Pharmacology and Therapeutics, 2015).

Series [1] can be described thus: Peak plasma / gut / hepatic inlet concentration at the highest clinical dose. The note with it: Cmax + (ka x Dose x FaFg/Qh).
In a further series the target is T1, OATP1B2 (Rattus norvegicus, UniProt Q9QZX8).
T1 sequence (Q9QZX8 1-687): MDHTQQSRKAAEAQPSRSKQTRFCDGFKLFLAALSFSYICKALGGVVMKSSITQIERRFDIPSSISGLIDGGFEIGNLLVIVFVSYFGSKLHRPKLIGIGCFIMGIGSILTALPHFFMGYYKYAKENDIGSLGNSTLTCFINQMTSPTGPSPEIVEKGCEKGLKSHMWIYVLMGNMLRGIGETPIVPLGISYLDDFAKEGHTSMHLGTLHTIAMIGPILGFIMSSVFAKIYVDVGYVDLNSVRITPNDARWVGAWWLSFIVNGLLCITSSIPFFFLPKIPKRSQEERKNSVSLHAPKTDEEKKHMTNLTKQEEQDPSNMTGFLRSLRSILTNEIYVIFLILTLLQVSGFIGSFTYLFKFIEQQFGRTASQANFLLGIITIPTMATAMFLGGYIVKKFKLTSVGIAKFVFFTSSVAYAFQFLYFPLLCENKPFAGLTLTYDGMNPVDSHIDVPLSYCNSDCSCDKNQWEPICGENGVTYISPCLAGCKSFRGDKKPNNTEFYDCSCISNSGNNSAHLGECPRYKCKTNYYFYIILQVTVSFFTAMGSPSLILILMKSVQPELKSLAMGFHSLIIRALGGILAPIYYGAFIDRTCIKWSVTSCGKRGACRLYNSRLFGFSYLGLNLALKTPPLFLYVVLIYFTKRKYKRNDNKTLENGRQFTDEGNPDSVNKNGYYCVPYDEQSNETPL
The series is described as follows: Inhibition of E217βDG active uptake in cryopreserved rat hepatocytes.

As for `Clc1ccc2c(c1)CCc1cccnc1C2=C1CCNCC1` [Desloratadine], the “Maximal hepatic inlet concentration ([I]inlet,max)” value in series [1] turned out to be 1.088 µM. In addition, on OATP1B2, the concentration for half-maximal inhibition (IC50) (usually the concentration that inhibits the measured activity by half) is 140 µM.
